Data: publication PMC7819943, “Rice protein-binding microarrays: a tool to detect cis-acting elements near promoter regions in rice”
This is one part of the list.

Biological target: T1, OsSMF1 (Oryza sativa, UniProt Q6ZLB0 1-436)
T1 sequence: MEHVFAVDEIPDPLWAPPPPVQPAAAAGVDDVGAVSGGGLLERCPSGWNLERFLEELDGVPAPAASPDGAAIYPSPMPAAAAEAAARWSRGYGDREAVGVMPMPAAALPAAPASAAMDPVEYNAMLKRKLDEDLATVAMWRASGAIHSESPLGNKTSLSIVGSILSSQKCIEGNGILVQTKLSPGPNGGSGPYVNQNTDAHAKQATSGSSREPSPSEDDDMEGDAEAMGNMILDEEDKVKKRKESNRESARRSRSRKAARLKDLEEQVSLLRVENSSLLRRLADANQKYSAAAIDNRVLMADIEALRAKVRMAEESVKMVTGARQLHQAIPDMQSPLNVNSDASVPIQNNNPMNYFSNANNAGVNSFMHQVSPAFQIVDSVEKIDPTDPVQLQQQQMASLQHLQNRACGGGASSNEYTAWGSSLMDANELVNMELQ
Test: protein-binding microarray (RPBM); PBS, 2% BSA, 51.3 ng/ul salmon testes DNA, 50 uM zinc acetate, 200 nM TF, 25 C, 1 h; high values mean tight binding
Details: protein: recombinant; tags: N-terminal polyhistidine and DsRed monomer fusion (pET32a); chain copies: 2; label: CyDye5-dUTP incorporated in the synthesized complementary strand; 3' TTTTT single-stranded linker to array surface; dsDNA, one strand shown
Procedure, shortened: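 An Axon 4000B scanner gave the binding signal as per-feature fluorescence intensity in arbitrary units. This followed washing of a custom Agilent array that had been incubated for 1 h at 25 °C with 200 nM protein in PBS, 2% BSA, salmon testes DNA and 50 µM zinc acetate. The proteins were transcription factors fused at the N-terminus to polyhistidine and DsRed, expressed in E. coli BL21-CodonPlus and purified on Ni–NTA.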

Sequence	binding signal
GAAGATCCGGGCGTCAGCAGTGACAACCCTCTCTCGTCGTCGGAGTCACCTAGTGCAG	8390 fluorescence intensity (a.u.)
AGAGTACGTAAGGCCGTTGCCGTCAAATTGTTTGACAGAACGGAGTCACCTAGTGCAG	3140 fluorescence intensity (a.u.)
GATCTACGATCTGCGAGCTCAGCACTGCACGTTGTAGCCACGGAGTCACCTAGTGCAG	3350 fluorescence intensity (a.u.)
CATTATTGTTTTATTATCGTGACACATGTTGTTCTCATAACGGAGTCACCTAGTGCAG	3230 fluorescence intensity (a.u.)
CCCCACGACCACCGCCTCATTGGTCCACATAAGCCGCAGCCGGAGTCACCTAGTGCAG	3610 fluorescence intensity (a.u.)
TTGCAACCTCCGACAACGGCGTTGTCAGTGTCAACAGCGGCGGAGTCACCTAGTGCAG	4290 fluorescence intensity (a.u.)
ACACTAGGCCCAAGGCAAGCCCACCACTCGTGCTCGTAACCGGAGTCACCTAGTGCAG	3190 fluorescence intensity (a.u.)
TGAACACGAACGCGACGCTTCTTCTGTCACGTACGCCCGTCGGAGTCACCTAGTGCAG	3200 fluorescence intensity (a.u.)
GAAGGCGGCGGGGTGGCGAAGTGGCGAGGAGGAGACGGGGCGGAGTCACCTAGTGCAG	4910 fluorescence intensity (a.u.)
CTACATCGGCGAGCTCGGGGACACGTTCGCCGGGCTGTGGCGGAGTCACCTAGTGCAG	3840 fluorescence intensity (a.u.)
TGAGGGCCGCCACGTCCTCATGGCCTCCGCCCCATCGGAGCGGAGTCACCTAGTGCAG	7660 fluorescence intensity (a.u.)
CCAGCCCAGCCCAGCCCATGTCGTGTCGTCTTCCCCAGTCCGGAGTCACCTAGTGCAG	3960 fluorescence intensity (a.u.)
CCGAATGCATGGAAGTGATCAAGTGAACTAGAGGCAGAGGCGGAGTCACCTAGTGCAG	25500 fluorescence intensity (a.u.)
CCCCAGAAAGTCCCCATATTTCTAGGAACTTCCGTTCTAGCGGAGTCACCTAGTGCAG	13900 fluorescence intensity (a.u.)
TGCACACCCTATCCCGAAATACACATCACGCTCACGGGGCCGGAGTCACCTAGTGCAG	5630 fluorescence intensity (a.u.)
ATCAGGATGCCTCAGGCGAGCCACGTGACCACGTCTGATGCGGAGTCACCTAGTGCAG	6150 fluorescence intensity (a.u.)
GTGGTCCCCAGATGTCATACATCCATGCTAGCTTGCTCCGCGGAGTCACCTAGTGCAG	5090 fluorescence intensity (a.u.)
GTAATTATTGCTAGTGGGTGATGATGTGGCATGGTTGCATCGGAGTCACCTAGTGCAG	25200 fluorescence intensity (a.u.)
ACAAGGCATTGGTATCTGACGAGGTCTCTTGCCGTGTAGTCGGAGTCACCTAGTGCAG	3420 fluorescence intensity (a.u.)
GGCGGCGGCGTCAGCGGGCACGTGGGCGATGGTGGTGCACCGGAGTCACCTAGTGCAG	4070 fluorescence intensity (a.u.)
ACCGTAGCATAATTACAACTGACGCGTGAGTTGTCTGGATCGGAGTCACCTAGTGCAG	4920 fluorescence intensity (a.u.)

Some of the entries so far, with bars between the fields.
Sequence | binding signal
AGAGTACGTAAGGCCGTTGCCGTCAAATTGTTTGACAGAACGGAGTCACCTAGTGCAG | 3140 fluorescence intensity (a.u.)
GATCTACGATCTGCGAGCTCAGCACTGCACGTTGTAGCCACGGAGTCACCTAGTGCAG | 3350 fluorescence intensity (a.u.)

Remaining list, next part:

Sequence	binding signal
ATTAGGATGTGACGTGTGTACGTGTAGTGATTATGCATAACGGAGTCACCTAGTGCAG	9190 fluorescence intensity (a.u.)
TACGGTGGTAGGAGAGGCCACGTGTGCGTCCCAGCAAGTGCGGAGTCACCTAGTGCAG	7820 fluorescence intensity (a.u.)
CAGCACCAACAGCCACTCCTCCGGGCACGTCTACTCCGACCGGAGTCACCTAGTGCAG	28300 fluorescence intensity (a.u.)
TTAATAATATTGTTGATATTCAATCTATTATTCAACATTTCGGAGTCACCTAGTGCAG	23900 fluorescence intensity (a.u.)
TGTTGGACACGGCCCATAAGGTGGAATCATGCTGGGCCTGCGGAGTCACCTAGTGCAG	20200 fluorescence intensity (a.u.)
ATCGTCGAGGCTGAGGACGGTGACGAGGAATGGAAGGAGCCGGAGTCACCTAGTGCAG	3780 fluorescence intensity (a.u.)
ATCAGACCATATGTGACTCACTGCCTCACCCTAGCTTAGTCGGAGTCACCTAGTGCAG	8180 fluorescence intensity (a.u.)
TCCGTCGAAGCAGTTTACCGTTGGTGATTCATTCAGCGATCGGAGTCACCTAGTGCAG	3870 fluorescence intensity (a.u.)
ACAGCTCTCTCAGATCCAAAGCCGTGGAGAAATCGCGCGACGGAGTCACCTAGTGCAG	23700 fluorescence intensity (a.u.)
GTGGGGCGATCAAGCGGCGACTGCTCCGGCGAAGCGGCCCCGGAGTCACCTAGTGCAG	3280 fluorescence intensity (a.u.)
TCGAGGTGGGAGCGGCGGTGACGGCATCAGCGCGCGGTGGCGGAGTCACCTAGTGCAG	3350 fluorescence intensity (a.u.)
AATGTGACAACCCATCATTTCACCGACTAAACGAGCCCTCCGGAGTCACCTAGTGCAG	3560 fluorescence intensity (a.u.)
TAGCGACATACACGTAAGTACGTTACCAGATACAGCCCAGCGGAGTCACCTAGTGCAG	7240 fluorescence intensity (a.u.)
CTTTTAAGAACAGGTTGATATGACTACATCTCTTTCAGCACGGAGTCACCTAGTGCAG	3370 fluorescence intensity (a.u.)
ATAAGACATCGTTCTCTGCATGACGCGTGCGTCGATCGATCGGAGTCACCTAGTGCAG	4990 fluorescence intensity (a.u.)
GCCGCACTATAAATTAGTCATGCACAGTTGCATCCATGGCCGGAGTCACCTAGTGCAG	4560 fluorescence intensity (a.u.)
CAACGCGTAGCGTCAGCCAGACGAACCAGAGTCTACTGTACGGAGTCACCTAGTGCAG	3810 fluorescence intensity (a.u.)
TCAGATCAATCTCCCTCCGTCGCCAACATCACCTTGTTTGCGGAGTCACCTAGTGCAG	3960 fluorescence intensity (a.u.)
TACTCCAATTTCTGTGCTTATCACTGCTTCAGTGTTTGCCCGGAGTCACCTAGTGCAG	10700 fluorescence intensity (a.u.)
GTAACTTATATATACGATAAAAGTAACTTACACATATAATCGGAGTCACCTAGTGCAG	16700 fluorescence intensity (a.u.)
AAAGGCTAGTCGCTACCTCATCAGCATCAGTTACAGCTTCCGGAGTCACCTAGTGCAG	3590 fluorescence intensity (a.u.)
